Measurements from patent US9987294B2, “Mitochondria-targeted anti-tumor agents” (University of Massachusetts, priority 2007, dated 2018).
Part of at least one peptide drawing is inferred or uncertain, most often the ends.

Experiments:
[1] = test system: p53+/+ or p53−/− HCT116 cells; assay: Apoptosis by DEVDase activity and propidium iodide staining (multiparametric flow cytometry); assay type: cell-based, human
HeLa cells = assay: Cell viability by MTT, HeLa cells

## CC[C@H](C)[C@H](NC(=O)[C@H](CCCCN)NC(=O)[C@@H](NC(=O)[C@H](CCC(N)=O)NC(=O)[C@@H](N)CCCNC(=N)N)[C@@H](C)CC)C(=O)N[C@@H](Cc1c[nH]c2ccccc12)C(=O)N[C@@H](Cc1ccccc1)C(=O)N[C@@H](CCC(N)=O)C(=O)N[C@@H](CC(N)=O)C(=O)N[C@@H](CCCNC(=N)N)C(=O)N[C@@H](CCCNC(=N)N)C(=O)N[C@@H](CCSC)C(=O)N[C@@H](CCCCN)C(=O)N[C@@H](Cc1c[nH]c2ccccc12)C(=O)N[C@@H](CCCCN)C(=O)N[C@@H](CCCCN)C(=O)N[C@@H](CSC1CC(=O)N(CCCC(=O)NCCCNC2=C3C[C@@H](C)C[C@H](OC)[C@H](O)[C@@H](C)/C=C(\C)[C@H](OC(N)=O)[C@@H](OC)/C=C\C=C(/C)C(=O)NC(=CC2=O)C3=O)C1=O)C(N)=O (stereo partly drawn) [ANT-GA]
[1]; p53+/+ and p53−/− HCT116
  apoptosis (caspase activity by DEVDase hydrolysis): had the hallmarks of apoptosis with increased caspase activity
[1]; p53+/+ versus p53−/− HCT116
  dependence of tumor cell killing on p53: unaffected by the presence or absence of p53
HeLa cells
  tumor cell killing: rapid (˜2 hours), and concentration-dependent cell killing
